Reference: PubChem BioAssay AID652259 (Drosophila RNAi Screening Center, 2013)
In all, the deposit lists about 22,000 reagents; this is an unselected part of those with a known target gene and a result. In the full data, 233 (1.1%) are marked active. 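Light values are raw, unnormalised plate reads; the ratio scores behind the reporter calls were not deposited.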 Names joined by + are all predicted targets of the reagent. Not stated in the record: the amount of reagent, the time to read-out, the dose of the treatment.

Assay: 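Genome-wide hunt for genes that control Wingless pathway activity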 (primary screen)
System: Drosophila clone 8 imaginal disc epithelial cells
Reagents: long dsRNA against Drosophila genes
Challenge: pathway stimulated by co-transfected Wingless expression plasmid
Read-out: 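Firefly luciferase from a tcf-site Wingless reporter, measured alongside co-transfected Renilla luciferase that tracks transfection; pathway stimulated by a Wingless plasmid; the firefly-to-Renilla ratio is not deposited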
Direction: firefly reporter light: higher = more Wg reporter light, before normalisation; Renilla control light: higher = more transfected or surviving cells
Rule for the call: 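a knock-down is a candidate when at least two out of four statistical tests show it departing from its plate mean; one test alone signals a weak candidate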
Meaning of the calls: active = candidate regulator (raises or lowers reporter); inactive = not a candidate

After knock-down of BuGZ [DRSC02642], the record shows firefly reporter light, replicate 1 = 15738; Renilla control light, replicate 1 = 2198; inactive.
With knock-down of BuGZ [DRSC02643], the record shows firefly reporter light, replicate 1 = 2310; firefly reporter light, replicate 2 = 10325; Renilla control light, replicate 1 = 967; Renilla control light, replicate 2 = 4439; inactive.
For gol [DRSC04689] the deposit lists firefly reporter light, replicate 1 = 10790; Renilla control light, replicate 1 = 3760; inactive.
Knock-down of dmt [DRSC16932] resulted in: firefly reporter light, replicate 1 = 25106; Renilla control light, replicate 1 = 3504; inactive.
salt [DRSC15427] scored firefly reporter light, replicate 1 = 2357; firefly reporter light, replicate 2 = 5553; Renilla control light, replicate 1 = 1290; Renilla control light, replicate 2 = 2295; inactive.
Depletion of Blos2 [DRSC10147] resulted in: firefly reporter light, replicate 1 = 6470; Renilla control light, replicate 1 = 2387; inactive.
Jon66Cii [DRSC10778] gave firefly reporter light, replicate 1 = 1961; firefly reporter light, replicate 2 = 9543; Renilla control light, replicate 1 = 852; Renilla control light, replicate 2 = 3504; inactive.
With knock-down of Gr21a [DRSC00366], the record shows firefly reporter light, replicate 1 = 1829; firefly reporter light, replicate 2 = 5018; Renilla control light, replicate 1 = 1226; Renilla control light, replicate 2 = 2890; inactive.
For CRAT [DRSC12523] the deposit lists firefly reporter light, replicate 1 = 15473; Renilla control light, replicate 1 = 4810; inactive.
tty [DRSC20588] showed firefly reporter light, replicate 1 = 4001; firefly reporter light, replicate 2 = 8245; Renilla control light, replicate 1 = 1545; Renilla control light, replicate 2 = 3594; inactive.
For CG34277 + CG31542 [DRSC21544] the deposit lists firefly reporter light, replicate 1 = 4.74e5; firefly reporter light, replicate 2 = 4.68e5; Renilla control light, replicate 1 = 1.15e5; Renilla control light, replicate 2 = 96311; inactive.
Knock-down of e [DRSC16936] gave: firefly reporter light, replicate 1 = 2364; firefly reporter light, replicate 2 = 5385; Renilla control light, replicate 1 = 963; Renilla control light, replicate 2 = 2050; inactive.
Silencing of CG13840 [DRSC14690] resulted in: firefly reporter light, replicate 1 = 20217; Renilla control light, replicate 1 = 12530; inactive.
CG30187 [DRSC22461] gave firefly reporter light, replicate 1 = 3.68e5; firefly reporter light, replicate 2 = 4.59e5; Renilla control light, replicate 1 = 1.21e5; Renilla control light, replicate 2 = 80672; inactive.
net [DRSC00309] gave firefly reporter light, replicate 1 = 3277; firefly reporter light, replicate 2 = 8284; Renilla control light, replicate 1 = 1388; Renilla control light, replicate 2 = 3442; inactive.
With knock-down of CG18585 [DRSC02678], the screen gave firefly reporter light, replicate 1 = 10496; Renilla control light, replicate 1 = 4469; inactive.
CG10073 [DRSC05961] showed firefly reporter light, replicate 1 = 6117; Renilla control light, replicate 1 = 2109; inactive.

In a second layout: entries from further up.
| target | amplicon | firefly reporter light, replicate 1 | firefly reporter light, replicate 2 | Renilla control light, replicate 1 | Renilla control light, replicate 2 | outcome |
| --- | --- | --- | --- | --- | --- | --- |
| CRAT | DRSC12523 | 15473 | – | 4810 | – | inactive |
| tty | DRSC20588 | 4001 | 8245 | 1545 | 3594 | inactive |
